Laboratory results: the supplement of paper PMC10849652
Some of the results follow.

Protein sequences, listed by entry. Tags and fused reporters are not part of them. Lines headed by an entry give the natural chain unless they say otherwise; changes in a name come on top.
UniProt Q15785: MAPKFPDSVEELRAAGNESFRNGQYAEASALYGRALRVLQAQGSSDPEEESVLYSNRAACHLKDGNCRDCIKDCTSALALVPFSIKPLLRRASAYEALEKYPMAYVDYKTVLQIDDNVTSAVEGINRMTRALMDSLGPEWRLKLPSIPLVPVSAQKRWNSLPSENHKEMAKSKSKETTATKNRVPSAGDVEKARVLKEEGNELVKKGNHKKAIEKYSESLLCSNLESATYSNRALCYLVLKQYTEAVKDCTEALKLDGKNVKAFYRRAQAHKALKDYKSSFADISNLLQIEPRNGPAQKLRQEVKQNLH
UniProt P29144: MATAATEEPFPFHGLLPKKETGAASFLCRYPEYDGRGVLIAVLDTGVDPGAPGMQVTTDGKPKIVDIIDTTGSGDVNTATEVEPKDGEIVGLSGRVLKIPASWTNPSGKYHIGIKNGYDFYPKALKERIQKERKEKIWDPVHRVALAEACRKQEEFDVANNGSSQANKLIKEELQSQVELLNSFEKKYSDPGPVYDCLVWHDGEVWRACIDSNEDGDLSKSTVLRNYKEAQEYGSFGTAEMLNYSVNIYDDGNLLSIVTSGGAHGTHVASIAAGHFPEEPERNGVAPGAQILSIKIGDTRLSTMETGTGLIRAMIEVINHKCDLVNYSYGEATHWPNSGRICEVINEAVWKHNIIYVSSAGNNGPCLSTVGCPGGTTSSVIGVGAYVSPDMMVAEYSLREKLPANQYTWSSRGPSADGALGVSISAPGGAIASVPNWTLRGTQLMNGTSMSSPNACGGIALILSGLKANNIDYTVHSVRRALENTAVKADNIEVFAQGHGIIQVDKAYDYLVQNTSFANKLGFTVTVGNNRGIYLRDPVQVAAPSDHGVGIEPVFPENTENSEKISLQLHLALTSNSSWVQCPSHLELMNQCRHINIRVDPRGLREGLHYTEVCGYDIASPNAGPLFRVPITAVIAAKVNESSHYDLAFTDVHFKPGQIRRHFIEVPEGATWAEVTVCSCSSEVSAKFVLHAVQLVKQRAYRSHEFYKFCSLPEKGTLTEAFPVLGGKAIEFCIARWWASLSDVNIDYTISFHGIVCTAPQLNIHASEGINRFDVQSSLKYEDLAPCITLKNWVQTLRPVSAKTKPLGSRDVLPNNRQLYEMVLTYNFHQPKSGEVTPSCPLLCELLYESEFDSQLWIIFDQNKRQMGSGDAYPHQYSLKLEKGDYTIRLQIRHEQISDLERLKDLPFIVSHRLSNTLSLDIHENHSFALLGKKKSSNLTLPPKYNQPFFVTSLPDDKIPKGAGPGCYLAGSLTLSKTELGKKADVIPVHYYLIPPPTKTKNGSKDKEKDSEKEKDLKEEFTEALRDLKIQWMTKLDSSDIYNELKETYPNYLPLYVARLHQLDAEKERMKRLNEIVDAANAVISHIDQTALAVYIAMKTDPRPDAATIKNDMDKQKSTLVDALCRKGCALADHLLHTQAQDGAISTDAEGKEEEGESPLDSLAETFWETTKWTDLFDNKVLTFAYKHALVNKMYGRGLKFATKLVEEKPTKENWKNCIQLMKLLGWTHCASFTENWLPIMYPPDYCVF
UniProt O43715: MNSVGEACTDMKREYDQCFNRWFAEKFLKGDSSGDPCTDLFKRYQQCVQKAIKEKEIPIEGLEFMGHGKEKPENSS
UniProt Q15645: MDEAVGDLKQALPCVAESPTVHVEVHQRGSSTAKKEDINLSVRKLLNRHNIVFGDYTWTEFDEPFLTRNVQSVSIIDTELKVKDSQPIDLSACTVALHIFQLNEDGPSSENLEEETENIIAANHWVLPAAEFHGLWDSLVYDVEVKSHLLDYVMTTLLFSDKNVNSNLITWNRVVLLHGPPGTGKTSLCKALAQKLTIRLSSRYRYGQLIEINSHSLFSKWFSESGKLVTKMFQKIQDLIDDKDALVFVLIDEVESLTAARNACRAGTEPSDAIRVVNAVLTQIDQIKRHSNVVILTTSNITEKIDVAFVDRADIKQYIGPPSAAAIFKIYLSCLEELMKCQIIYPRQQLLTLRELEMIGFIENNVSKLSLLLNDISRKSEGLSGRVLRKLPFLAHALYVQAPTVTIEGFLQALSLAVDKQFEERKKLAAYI
UniProt P48553, whole entry, looked up: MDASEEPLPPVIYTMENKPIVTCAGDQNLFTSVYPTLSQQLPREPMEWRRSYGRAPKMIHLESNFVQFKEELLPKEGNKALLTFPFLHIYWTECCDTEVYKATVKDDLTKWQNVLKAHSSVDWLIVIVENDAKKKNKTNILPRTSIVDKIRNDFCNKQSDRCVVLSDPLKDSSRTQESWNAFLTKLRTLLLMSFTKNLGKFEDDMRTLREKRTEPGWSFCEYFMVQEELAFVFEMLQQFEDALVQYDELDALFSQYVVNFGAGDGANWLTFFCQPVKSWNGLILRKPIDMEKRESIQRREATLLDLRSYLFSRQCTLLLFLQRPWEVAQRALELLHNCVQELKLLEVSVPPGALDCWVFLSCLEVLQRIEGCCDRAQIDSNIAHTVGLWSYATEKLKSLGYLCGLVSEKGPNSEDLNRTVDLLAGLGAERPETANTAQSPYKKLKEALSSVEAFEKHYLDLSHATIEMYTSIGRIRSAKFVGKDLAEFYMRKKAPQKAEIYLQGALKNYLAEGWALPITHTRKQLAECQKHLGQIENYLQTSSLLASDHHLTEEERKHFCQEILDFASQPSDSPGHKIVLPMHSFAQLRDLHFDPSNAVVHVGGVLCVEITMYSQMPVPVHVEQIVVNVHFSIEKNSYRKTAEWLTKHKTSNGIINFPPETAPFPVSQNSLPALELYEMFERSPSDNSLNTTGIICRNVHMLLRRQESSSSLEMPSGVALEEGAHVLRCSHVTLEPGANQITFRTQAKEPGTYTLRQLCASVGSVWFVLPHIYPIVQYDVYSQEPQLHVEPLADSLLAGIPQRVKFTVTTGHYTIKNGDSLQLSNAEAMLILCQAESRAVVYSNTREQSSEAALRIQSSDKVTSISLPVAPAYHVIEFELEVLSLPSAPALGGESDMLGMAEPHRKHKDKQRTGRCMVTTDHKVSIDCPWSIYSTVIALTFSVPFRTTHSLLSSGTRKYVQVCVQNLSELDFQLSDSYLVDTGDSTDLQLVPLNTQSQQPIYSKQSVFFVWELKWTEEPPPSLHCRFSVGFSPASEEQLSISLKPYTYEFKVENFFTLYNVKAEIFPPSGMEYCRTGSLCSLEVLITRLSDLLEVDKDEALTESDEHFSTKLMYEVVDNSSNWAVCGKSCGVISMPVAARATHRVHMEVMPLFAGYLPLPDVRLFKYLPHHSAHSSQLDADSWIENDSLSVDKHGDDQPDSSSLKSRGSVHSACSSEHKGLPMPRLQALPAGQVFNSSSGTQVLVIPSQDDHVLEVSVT
UniProt Q9UKE5: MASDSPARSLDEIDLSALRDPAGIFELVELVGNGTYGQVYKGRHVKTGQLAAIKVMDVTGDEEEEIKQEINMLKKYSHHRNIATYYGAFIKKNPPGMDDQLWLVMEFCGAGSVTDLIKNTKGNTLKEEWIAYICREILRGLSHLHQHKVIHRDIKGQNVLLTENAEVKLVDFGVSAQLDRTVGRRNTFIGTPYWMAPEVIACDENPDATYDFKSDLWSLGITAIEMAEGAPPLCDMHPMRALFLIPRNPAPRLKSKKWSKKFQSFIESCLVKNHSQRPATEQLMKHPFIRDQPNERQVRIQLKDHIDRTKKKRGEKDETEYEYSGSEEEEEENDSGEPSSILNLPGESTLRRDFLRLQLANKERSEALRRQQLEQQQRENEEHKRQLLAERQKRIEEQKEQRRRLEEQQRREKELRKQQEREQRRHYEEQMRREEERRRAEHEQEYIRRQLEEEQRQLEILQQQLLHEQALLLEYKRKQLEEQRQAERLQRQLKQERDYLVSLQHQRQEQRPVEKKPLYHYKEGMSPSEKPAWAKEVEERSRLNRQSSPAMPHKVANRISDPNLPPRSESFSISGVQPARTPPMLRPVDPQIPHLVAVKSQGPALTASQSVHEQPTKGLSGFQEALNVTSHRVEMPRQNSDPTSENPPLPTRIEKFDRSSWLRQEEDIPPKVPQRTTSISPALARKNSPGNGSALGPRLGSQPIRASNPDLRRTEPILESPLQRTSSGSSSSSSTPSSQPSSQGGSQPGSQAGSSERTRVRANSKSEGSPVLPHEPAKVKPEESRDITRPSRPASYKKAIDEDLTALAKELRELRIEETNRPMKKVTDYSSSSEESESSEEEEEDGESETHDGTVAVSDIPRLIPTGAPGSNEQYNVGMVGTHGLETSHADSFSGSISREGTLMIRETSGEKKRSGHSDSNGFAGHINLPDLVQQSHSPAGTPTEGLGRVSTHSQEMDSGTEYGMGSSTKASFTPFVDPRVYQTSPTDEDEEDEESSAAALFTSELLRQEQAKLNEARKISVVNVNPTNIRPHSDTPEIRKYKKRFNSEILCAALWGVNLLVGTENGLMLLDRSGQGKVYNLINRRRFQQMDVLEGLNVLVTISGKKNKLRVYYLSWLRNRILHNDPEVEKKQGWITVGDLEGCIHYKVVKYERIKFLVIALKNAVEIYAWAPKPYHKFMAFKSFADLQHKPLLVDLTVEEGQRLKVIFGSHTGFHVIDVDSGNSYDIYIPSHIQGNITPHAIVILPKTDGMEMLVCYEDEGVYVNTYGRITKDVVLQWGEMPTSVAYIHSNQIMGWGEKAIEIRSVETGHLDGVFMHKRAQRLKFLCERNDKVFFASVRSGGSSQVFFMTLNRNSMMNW
UniProt Q9NXH8: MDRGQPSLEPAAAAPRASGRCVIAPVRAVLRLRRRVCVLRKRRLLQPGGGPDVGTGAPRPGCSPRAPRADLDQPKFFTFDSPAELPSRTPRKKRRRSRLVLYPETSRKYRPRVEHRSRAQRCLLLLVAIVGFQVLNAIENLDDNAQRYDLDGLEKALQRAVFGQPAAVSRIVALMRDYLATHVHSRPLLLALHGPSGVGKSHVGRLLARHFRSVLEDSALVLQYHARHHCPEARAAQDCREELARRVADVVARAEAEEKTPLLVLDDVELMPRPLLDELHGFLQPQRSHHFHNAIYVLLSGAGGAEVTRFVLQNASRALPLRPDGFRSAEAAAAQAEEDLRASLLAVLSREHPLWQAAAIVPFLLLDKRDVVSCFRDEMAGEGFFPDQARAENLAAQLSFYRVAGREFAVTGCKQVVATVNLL
UniProt Q9Y4K3: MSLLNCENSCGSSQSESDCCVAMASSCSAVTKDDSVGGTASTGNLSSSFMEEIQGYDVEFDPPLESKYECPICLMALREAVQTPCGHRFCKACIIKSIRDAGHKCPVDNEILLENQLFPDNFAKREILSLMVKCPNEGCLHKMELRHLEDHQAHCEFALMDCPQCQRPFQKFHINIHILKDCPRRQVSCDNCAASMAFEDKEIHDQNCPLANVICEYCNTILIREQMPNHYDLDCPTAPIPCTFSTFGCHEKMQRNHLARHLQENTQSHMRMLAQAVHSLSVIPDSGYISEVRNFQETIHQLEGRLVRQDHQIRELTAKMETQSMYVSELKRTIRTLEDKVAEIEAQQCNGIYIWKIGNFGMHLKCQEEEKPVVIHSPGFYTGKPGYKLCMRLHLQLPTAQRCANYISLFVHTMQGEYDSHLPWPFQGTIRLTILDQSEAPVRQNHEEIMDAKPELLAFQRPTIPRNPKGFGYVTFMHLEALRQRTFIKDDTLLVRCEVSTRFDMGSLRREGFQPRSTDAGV
UniProt O95985: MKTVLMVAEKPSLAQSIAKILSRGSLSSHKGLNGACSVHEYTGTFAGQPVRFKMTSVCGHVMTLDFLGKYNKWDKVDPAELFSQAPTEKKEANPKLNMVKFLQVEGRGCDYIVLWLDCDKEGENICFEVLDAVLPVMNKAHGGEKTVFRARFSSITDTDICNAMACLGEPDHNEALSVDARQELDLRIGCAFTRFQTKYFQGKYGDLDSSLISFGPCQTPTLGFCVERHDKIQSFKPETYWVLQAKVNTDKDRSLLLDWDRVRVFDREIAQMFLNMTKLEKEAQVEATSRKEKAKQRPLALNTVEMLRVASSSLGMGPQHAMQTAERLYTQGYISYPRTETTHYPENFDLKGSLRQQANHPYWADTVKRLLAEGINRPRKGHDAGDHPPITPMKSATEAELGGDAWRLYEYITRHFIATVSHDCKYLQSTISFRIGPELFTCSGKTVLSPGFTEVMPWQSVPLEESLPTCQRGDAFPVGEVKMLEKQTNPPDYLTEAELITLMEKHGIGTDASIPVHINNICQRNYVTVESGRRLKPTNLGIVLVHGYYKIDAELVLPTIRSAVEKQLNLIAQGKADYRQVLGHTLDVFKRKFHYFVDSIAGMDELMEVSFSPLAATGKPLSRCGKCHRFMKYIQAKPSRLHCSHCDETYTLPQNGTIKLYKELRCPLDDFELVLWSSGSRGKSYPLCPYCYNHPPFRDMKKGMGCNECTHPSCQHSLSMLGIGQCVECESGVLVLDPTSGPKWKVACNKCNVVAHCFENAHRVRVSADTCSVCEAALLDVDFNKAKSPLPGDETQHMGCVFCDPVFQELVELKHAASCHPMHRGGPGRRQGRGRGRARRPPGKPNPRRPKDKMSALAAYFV

These targets were tested with C1CCN(C1)C(=O)NC2=CC=CC(=C2)NC3=NC=C(C(=N3)NCCC4=CN=CN4)Br (assay: log2 fold change, soluble protein after heating vs DMSO (PISA); higher = thermal stabilisation; K562 cells, 10 uM, 30 min; active = over 0.2 and 3.5 SD of the protein, either way, in both replicates (recomputed)).
How it was run: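 Soluble protein was defined as the supernatant after 21,000xg for 90 min. It came from K562 cells at 2×10^6 cells/mL given 10 μM compound for 30 min, heated in aliquots for 3 min across 48°C-58°C, pooled, and extracted in PBS with 0.5% NP-40 at 4°C, and was quantified by TMTpro 16plex LC-MS/MS with equalised channel sums. Thermal stability against control samples, from duplicates, is reported as log2 fold change.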

log2 fold change, inactive:
TRIM25 (UniProt Q14258) -0.09
TOMM34 (UniProt Q15785) -0.042
TRIP11 (UniProt Q15643) 0.174
TRIM24 (UniProt O15164) -0.102
TPP2 (UniProt P29144) -0.095
TSEN34 (UniProt Q9BSV6) -0.137
TRIAP1 (UniProt O43715) 0.066
TP53RK (UniProt Q96S44) -0.014
TRIP13 (UniProt Q15645) 0.011
TRIO (UniProt O75962) 0.03
TSC22D2 (UniProt O75157) -0.017
TRAPPC10 (UniProt P48553) 0.05
TRMT112 (UniProt Q9UI30) 0.027
TOMM70 (UniProt O94826) 0.012
TOMM40 (UniProt O96008) 0.004
TOP2B (UniProt Q02880) 0.104
TNIK isoform 6 (UniProt Q9UKE5) 0.004
TOR4A (UniProt Q9NXH8) -0.021
TOP1 (UniProt P11387) -0.134
TPM4, A0A2R8Y5V9 -0.008
TRAF6 (UniProt Q9Y4K3) 0.039
TRRAP (UniProt Q9Y4A5) -0.017
TOP3B (UniProt O95985) -0.004

Pulled one by one from above, 2 records:
log2 fold change, inactive:
TRIM24 (UniProt O15164) -0.102
TRAF6 (UniProt Q9Y4K3) 0.039
